Amino acid sequences for entries named in this document (tags omitted).
UniProt P67809: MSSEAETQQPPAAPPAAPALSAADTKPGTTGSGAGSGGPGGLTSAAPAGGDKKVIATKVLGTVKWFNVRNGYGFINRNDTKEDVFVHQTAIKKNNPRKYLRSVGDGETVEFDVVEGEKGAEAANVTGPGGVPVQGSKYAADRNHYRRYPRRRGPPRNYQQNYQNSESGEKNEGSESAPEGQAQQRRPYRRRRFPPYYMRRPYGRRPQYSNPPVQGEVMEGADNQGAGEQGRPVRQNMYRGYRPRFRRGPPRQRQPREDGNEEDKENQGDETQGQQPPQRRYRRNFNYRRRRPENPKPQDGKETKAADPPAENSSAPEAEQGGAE

In publication PMC8924000:

Biological target: T1, Flag-GSDME (gasdermin E, wild type) (human) (UniProt O60443)
T1 sequence: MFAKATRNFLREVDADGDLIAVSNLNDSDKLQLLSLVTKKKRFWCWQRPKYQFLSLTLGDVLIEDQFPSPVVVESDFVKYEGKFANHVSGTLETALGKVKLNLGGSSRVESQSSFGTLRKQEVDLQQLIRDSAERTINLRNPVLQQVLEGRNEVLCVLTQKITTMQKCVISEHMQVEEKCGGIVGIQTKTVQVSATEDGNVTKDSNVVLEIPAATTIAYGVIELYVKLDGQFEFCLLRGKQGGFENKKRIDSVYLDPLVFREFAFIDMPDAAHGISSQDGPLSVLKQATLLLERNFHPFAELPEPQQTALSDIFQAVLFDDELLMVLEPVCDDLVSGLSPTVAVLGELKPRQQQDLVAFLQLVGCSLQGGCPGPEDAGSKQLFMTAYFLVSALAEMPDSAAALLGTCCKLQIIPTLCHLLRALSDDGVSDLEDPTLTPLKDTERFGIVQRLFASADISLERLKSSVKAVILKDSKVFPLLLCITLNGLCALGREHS
Assay: affinity purification with mass spectrometry; GSDME-SG/Flag-GSDME AsPC-1 cells treated with trypsin/chymotrypsin for 48 h; cell lysates immunoprecipitated with anti-Flag (anti-IgG as control), mass spectrometry

binding: binds
Substance: Y-box-binding protein 1 (YBX1), endogenous (from UniProt P67809 1-324)

Results are given in words; binding and its absence hold for the method and conditions named. Binding seen in cells or lysates may run through a third protein. A yes stands for co-enrichment or nearness to the bait. Other partners may have been found. Sequences can lack the tags named with a protein.
